Data published in paper doi:10.1101/2023.03.18.533296.

The chains behind the UniProt entries cited, without tags or fusion partners. Residues count along the entry.
UniProt Q9LZK5, residues 24-346: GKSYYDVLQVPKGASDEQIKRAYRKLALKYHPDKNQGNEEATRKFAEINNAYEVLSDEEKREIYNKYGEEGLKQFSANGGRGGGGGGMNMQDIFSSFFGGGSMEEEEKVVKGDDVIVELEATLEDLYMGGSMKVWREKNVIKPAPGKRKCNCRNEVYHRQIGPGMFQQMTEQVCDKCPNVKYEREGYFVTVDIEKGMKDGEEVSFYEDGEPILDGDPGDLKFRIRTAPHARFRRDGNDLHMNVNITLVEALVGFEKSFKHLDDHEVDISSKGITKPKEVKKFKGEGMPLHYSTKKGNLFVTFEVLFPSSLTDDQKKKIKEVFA
UniProt P55737: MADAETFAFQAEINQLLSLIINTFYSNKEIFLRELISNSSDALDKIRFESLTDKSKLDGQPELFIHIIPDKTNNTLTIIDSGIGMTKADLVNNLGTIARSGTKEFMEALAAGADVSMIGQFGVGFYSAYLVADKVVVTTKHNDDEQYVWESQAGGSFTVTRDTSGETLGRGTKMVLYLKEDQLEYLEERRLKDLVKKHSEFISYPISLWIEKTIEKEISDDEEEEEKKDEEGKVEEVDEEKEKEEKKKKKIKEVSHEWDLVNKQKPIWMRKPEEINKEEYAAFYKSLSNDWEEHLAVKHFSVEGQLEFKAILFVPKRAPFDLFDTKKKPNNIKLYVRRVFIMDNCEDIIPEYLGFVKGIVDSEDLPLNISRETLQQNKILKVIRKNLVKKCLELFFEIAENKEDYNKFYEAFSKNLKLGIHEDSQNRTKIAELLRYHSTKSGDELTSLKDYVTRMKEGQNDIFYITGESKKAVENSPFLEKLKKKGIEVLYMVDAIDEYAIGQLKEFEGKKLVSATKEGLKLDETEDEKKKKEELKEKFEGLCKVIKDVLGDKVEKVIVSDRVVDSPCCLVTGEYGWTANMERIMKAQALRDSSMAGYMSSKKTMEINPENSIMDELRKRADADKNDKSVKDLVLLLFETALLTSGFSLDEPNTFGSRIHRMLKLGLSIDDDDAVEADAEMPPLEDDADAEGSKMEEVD

Biological target: T1, GFP-VAMP721^Y57D (Arabidopsis thaliana) (UniProt Q9ZTW3)
T1 sequence: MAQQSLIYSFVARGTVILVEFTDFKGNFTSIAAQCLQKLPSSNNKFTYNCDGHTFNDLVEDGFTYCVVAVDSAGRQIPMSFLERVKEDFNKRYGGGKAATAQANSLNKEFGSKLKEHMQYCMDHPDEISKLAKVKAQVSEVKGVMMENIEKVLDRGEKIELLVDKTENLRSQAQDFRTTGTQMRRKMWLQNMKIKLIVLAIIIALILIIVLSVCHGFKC
Experiment: affinity purification with mass spectrometry

For ERDJ3B (from UniProt Q9LZK5 24-346), the binding was “binds”.

HSP90-2 (from UniProt P55737 1-699) was tested, and the binding was “binds”.

These are yes or no findings as the source states them, for the method shown. In cells and extracts the contact can be indirect. These calls come from enrichment with a bait or labelling near it, and not all partners need be listed. Tags and fused reporters may be left off the sequences shown.
